# Values of other authors, collected in patent US7250518B2, “Nicotinamide acids, amides, and their mimetics active as inhibitors of PDE4 isozymes” (Pfizer Inc., priority 2001, dated 2007).
# For at least one compound, name, drawing or mass did not settle the structure.
# Tests used:
# [1] = test system: human peripheral blood mononuclear cells (HPBM); details: normal patients and subjects with atopic dermatitis
# [2] = test system: endotoxin-induced acute renal failure
compound,measurement,setting,value
CCCCOc1cc(CC2CNC(=O)N2)ccc1OC (stereo not drawn) [Ro-201724],Inhibition of the proliferation of HPBM,[1],concentration-related inhibition
same,Survival of endotoxin-treated rats,[2],improve survival rates
same,Urinary cAMP excretion,"[2]; rats, post-treatment at 10 μg/kg/min",significantly increases
